Measurements from paper doi:10.1101/2020.07.09.194399.

Chains of the proteins cited; added tags and fusions are not shown.
UniProt Q86WV6: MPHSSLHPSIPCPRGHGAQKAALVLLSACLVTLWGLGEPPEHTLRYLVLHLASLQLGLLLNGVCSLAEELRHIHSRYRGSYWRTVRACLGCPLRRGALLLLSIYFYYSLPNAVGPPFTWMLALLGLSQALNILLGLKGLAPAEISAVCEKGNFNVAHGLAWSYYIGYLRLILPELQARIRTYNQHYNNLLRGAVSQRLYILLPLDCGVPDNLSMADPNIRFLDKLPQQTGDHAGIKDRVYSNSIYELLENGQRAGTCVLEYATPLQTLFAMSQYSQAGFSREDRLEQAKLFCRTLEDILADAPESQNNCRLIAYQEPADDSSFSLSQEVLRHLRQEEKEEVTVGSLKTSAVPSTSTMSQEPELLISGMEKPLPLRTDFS
UniProt P53621: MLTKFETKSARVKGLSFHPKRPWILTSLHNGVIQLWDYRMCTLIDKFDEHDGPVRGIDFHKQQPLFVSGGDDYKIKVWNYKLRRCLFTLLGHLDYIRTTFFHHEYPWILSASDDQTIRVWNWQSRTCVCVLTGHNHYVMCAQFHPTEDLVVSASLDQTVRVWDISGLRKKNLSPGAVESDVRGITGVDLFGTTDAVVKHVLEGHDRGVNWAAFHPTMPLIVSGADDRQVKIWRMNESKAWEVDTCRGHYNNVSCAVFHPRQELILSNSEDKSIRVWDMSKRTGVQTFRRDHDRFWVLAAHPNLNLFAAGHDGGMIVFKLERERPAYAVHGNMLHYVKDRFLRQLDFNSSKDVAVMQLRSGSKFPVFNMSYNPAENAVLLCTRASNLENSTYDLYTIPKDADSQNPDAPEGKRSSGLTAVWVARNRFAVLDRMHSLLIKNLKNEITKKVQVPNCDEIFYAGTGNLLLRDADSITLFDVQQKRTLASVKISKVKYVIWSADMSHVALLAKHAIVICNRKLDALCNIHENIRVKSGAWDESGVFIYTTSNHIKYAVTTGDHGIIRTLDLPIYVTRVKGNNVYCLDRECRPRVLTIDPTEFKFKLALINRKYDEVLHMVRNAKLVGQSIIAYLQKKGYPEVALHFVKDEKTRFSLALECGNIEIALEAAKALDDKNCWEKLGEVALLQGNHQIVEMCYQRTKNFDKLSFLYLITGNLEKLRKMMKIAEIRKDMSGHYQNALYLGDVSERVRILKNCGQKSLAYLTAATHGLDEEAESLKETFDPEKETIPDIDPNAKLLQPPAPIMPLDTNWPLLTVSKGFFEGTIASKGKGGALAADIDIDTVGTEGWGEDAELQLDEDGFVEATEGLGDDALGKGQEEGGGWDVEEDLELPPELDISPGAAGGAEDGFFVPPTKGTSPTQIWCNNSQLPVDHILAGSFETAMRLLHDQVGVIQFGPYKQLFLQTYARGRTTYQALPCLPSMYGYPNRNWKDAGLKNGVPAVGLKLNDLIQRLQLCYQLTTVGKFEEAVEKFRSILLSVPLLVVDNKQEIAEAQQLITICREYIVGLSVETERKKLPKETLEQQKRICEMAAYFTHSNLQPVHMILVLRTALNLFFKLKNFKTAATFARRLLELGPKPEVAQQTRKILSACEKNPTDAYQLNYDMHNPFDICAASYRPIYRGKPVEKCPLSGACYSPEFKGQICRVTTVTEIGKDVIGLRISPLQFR
UniProt O15260: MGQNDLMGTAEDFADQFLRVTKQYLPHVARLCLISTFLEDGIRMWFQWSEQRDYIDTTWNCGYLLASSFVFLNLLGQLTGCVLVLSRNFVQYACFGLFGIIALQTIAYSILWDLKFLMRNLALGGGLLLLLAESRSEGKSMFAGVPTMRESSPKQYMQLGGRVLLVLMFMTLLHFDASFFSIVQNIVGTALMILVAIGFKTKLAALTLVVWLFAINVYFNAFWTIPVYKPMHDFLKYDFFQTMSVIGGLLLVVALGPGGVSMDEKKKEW

Biological target: mCitrine (mCit)-tagged human STING (Stimulator of Interferon Genes) (human) (UniProt Q86WV6)
Assay: affinity purification with mass spectrometry

| Substance | binding |
| --- | --- |
| Coatomer subunit α (COPA) (from UniProt P53621 1-1224) | binds |
| Surfeit protein 4 (SURF4) (from UniProt O15260 1-269) | binds |

These are yes or no findings as the source states them, for the method shown. In cells and extracts the contact can be indirect. These calls come from enrichment with a bait or labelling near it, and not all partners need be listed.
